# PubChem BioAssay AID1259424, University of Nebraska Medical Center | 2018
# Assay: 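Seek colon cancer survival genes behaving like KSR1, using a six-gene signature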 (primary screen)
# Cell system: human HCT116 colon cancer cells
# Reagent: siRNA pool against human genes, 50 nM
# Measurement: 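Six signature mRNAs by branched-DNA multiplex assay, scaled to two housekeeping genes and non-targeting median, log2; matched to mean KSR1 knockdown profile by Pearson correlation and euclidean distance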
# Scale: mean correlation with KSR1 profile: higher = expression change more like KSR1 knockdown; mean distance from KSR1 profile: higher = expression change less like KSR1 knockdown
# Here is a random part of about 14,000 deposited reagents. 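Higher correlation or smaller distance means closer resemblance to KSR1 loss; control wells, including KSR1 knockdowns, recur on many plates.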 A reagent listed more than once was tested more than once; the source does not tell the runs apart. Further read-outs or replicates are left out here. No sequences are given here. Not given: the time to read-out.
Gene,mean correlation with KSR1 profile,mean distance from KSR1 profile
SYK (GeneID 6850),0.133,1.98
MAB21L1 (GeneID 4081),-0.401,1.66
PSMC5 (GeneID 5705),-0.555,4.27
DMD (GeneID 1756),-0.218,1.98
C8G (GeneID 733),0.274,1.99
CAPN5 (GeneID 726),0.108,2.25
DAZ3 (GeneID 57054),-0.0123,1.21
MRAP (GeneID 56246),0.666,2.32
TRIM51 (GeneID 84767),0.656,2.22
SGCE (GeneID 8910),-0.0865,2.69
HLCS (GeneID 3141),-0.266,2.79
UNC13A (GeneID 23025),-0.172,2.83
WAPL (GeneID 23063),-0.324,2.29
ETS1 (GeneID 2113),0.76,1.81
MRPL14 (GeneID 64928),0.534,1.97
SOCS1 (GeneID 8651),0.908,0.843
B9D1 (GeneID 27077),-0.44,1.8
CA6 (GeneID 765),-0.536,3.7
MAP1A (GeneID 4130),-0.622,1.23
GDE1 (GeneID 51573),-0.291,2.8
CLGN (GeneID 1047),-0.321,3.12
GPRC5B (GeneID 51704),0.97,1.46
LIPF (GeneID 8513),-0.232,1.23
FCER1A (GeneID 2205),-0.288,1.91
ZNF507 (GeneID 22847),-0.577,2.32
ACP6 (GeneID 51205),-0.278,2.74
KRT6B (GeneID 3854),-0.417,1.76
TSPAN3 (GeneID 10099),-0.41,1.94
TBKBP1 (GeneID 9755),-0.597,2.47
SEMA4G (GeneID 57715),-0.725,3.52
SACK1D (GeneID 81610),0.196,2.12
ARL6 (GeneID 84100),0.636,2.05
SHROOM3 (GeneID 57619),-0.127,2.43
NPR1 (GeneID 4881),0.338,1.64
NPR1 (GeneID 4881),0.196,2.52
CDK4 (GeneID 1019),0.305,2
EIF3L (GeneID 51386),-0.511,5.89
CCND1 (GeneID 595),-0.366,3.36
CDT1 (GeneID 81620),-0.854,2.77
CLPTM1 (GeneID 1209),0.332,0.882
PPIL4 (GeneID 85313),0.578,1.41
TMPRSS11E (GeneID 28983),-0.0552,2.18
CCNC (GeneID 892),-0.00763,1.23
CRLS1 (GeneID 54675),-0.279,1.55
RAD23A (GeneID 5886),0.281,2.44
ABL1 (GeneID 25),0.234,1.93
GPT (GeneID 2875),0.165,1.51
KLF7 (GeneID 8609),-0.0141,2.03
CLCN7 (GeneID 1186),-0.365,3
ATF3 (GeneID 467),0.26,1.33

8 consecutive records already listed, quoted:
Gene,mean correlation with KSR1 profile,mean distance from KSR1 profile
CDT1 (GeneID 81620),-0.854,2.77
CLPTM1 (GeneID 1209),0.332,0.882
PPIL4 (GeneID 85313),0.578,1.41
TMPRSS11E (GeneID 28983),-0.0552,2.18
CCNC (GeneID 892),-0.00763,1.23
CRLS1 (GeneID 54675),-0.279,1.55
RAD23A (GeneID 5886),0.281,2.44
ABL1 (GeneID 25),0.234,1.93
